Patent US20190048079A1
These are yes or no findings as the source states them, for the method shown. In cells and extracts the contact can be indirect. Some entries that bind do so weakly or less than the wild type.

Chains of the proteins cited; added tags and fusions are not shown.
UniProt P26718: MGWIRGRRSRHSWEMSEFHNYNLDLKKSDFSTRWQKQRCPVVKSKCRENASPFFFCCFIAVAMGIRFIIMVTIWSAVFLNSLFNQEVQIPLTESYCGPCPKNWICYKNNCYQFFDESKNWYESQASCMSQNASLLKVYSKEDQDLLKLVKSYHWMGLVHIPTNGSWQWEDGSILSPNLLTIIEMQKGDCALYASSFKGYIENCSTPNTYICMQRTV

Legend:
[1] = target: NKG2D receptor (human) (UniProt P26718); assay: co-immunoprecipitation from tumor line lysates, immunoblot
[2] = target: NKG2D receptor (human) (UniProt P26718); assay: co-immunoprecipitation with anti-NKG2D mAb 5C6, immunoblot for DAP10

B1: DAP10 signaling adaptor (protein, human, UniProt Q9UBK5 19-93, looked up)
chain: QTTPGERSSLPAFYPGTSGSCSGCGSLSLPLLAGLVAADAVASLLIVGAVFLCARPRRSPAQEDGKVYINMPGRG
B1 was tested, and the binding [1] was “binds” and the binding [2] was “binds”.
